PubChem BioAssay AID602196, INSERM | 2012
Screen: 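Modifiers of cisplatin sensitivity in A549 cells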. Cells: human A549 lung cancer cells. Reagents: siRNA pair against human genes. Timing: 48 h transfection before cisplatin; time from cisplatin to read-out not stated. Conditions: cisplatin at a dose killing half of control-siRNA cells; exact dose and duration not given. Measurement: 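Shift in cisplatin death relative to control siRNA, from -50 (all cells die) to +50 (no cells die); siRNAs harmful on their own scored 0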. Reading the numbers: two-siRNA summed score (-2 to +2): higher = both siRNAs protect from cisplatin killing; -2 means both sensitise; mean protection from cisplatin (shift in death) and protection from cisplatin (shift in death), siRNA C and protection from cisplatin (shift in death), siRNA D: higher = protection from cisplatin killing. Active means: 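Each siRNA scores 0 if harmful alone by LDH or WST-1, otherwise +1 if it reduces and -1 if it increases cisplatin killing; a gene is active when both siRNAs agree (sum +2 or -2)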. Calls: active = both siRNAs shift cisplatin killing the same way; inactive = no consistent shift, or siRNA harmful alone.
In all, the deposit lists about 23,000 reagents; below is an unselected part. 455 of all reagents (2%) count as active. 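Active includes both protection and sensitisation; some change values fall well beyond the stated -50 to +50 range.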 The record does not give: the amount of reagent.

The first 7 records, ahead of the listing:
| gene | PubChem SID | two-siRNA summed score (-2 to +2) | mean protection from cisplatin (shift in death) (%) | protection from cisplatin (shift in death), siRNA C (%) | protection from cisplatin (shift in death), siRNA D (%) | call |
| --- | --- | --- | --- | --- | --- | --- |
| MBD6 | SID131511469 | 0 | 4.4 | 5 | 3.7 | inactive |
| LYPLA1 | SID131520263 | 1 | 9.3 | 5 | 13.6 | inactive |
| ZBTB7A | SID131513445 | 0 | 6.6 | 3.8 | 9.4 | inactive |
| CHMP5 | SID131518261 | 0 | 17.7 | 6.5 | 28.8 | inactive |
| ASB13 | SID131507991 | 0 | 0.5 | -8.1 | 9.1 | inactive |
| KDF1 | SID131500917 | -1 | -14.2 | -18.6 | -9.7 | inactive |
| LOC392177 | SID131508678 | 0 | 1.3 | 1.9 | 0.7 | inactive |

The listing, from the start:
| gene | PubChem SID | two-siRNA summed score (-2 to +2) | mean protection from cisplatin (shift in death) (%) | protection from cisplatin (shift in death), siRNA C (%) | protection from cisplatin (shift in death), siRNA D (%) | call |
| --- | --- | --- | --- | --- | --- | --- |
| MBD6 | SID131511469 | 0 | 4.4 | 5 | 3.7 | inactive |
| LYPLA1 | SID131520263 | 1 | 9.3 | 5 | 13.6 | inactive |
| ZBTB7A | SID131513445 | 0 | 6.6 | 3.8 | 9.4 | inactive |
| CHMP5 | SID131518261 | 0 | 17.7 | 6.5 | 28.8 | inactive |
| ASB13 | SID131507991 | 0 | 0.5 | -8.1 | 9.1 | inactive |
| KDF1 | SID131500917 | -1 | -14.2 | -18.6 | -9.7 | inactive |
| LOC392177 | SID131508678 | 0 | 1.3 | 1.9 | 0.7 | inactive |
| FERMT2 | SID131511741 | 0 | 4.7 | 4 | 5.3 | inactive |
| TSPAN7 | SID131505980 | 0 | -2.2 | -5 | 0.6 | inactive |
| POU3F2 | SID131500595 | -1 | -20.1 | -27 | -13.2 | inactive |
| RNF25 | SID131507321 | 0 | -0.3 | -0.4 | -0.2 | inactive |
| TIGD5 | SID131515470 | 0 | 9.2 | 10.6 | 7.8 | inactive |
| ZNF397 | SID131506412 | 0 | -1.6 | 10.1 | -13.2 | inactive |
| TMEM176B | SID131510304 | 0 | 3.1 | 8.5 | -2.3 | inactive |
| GFPT2 | SID131512922 | 0 | 6 | 3.2 | 8.8 | inactive |
| MGC20533 | SID131518480 | 0 | 20.3 | 29.1 | 11.4 | inactive |
| VASH2 | SID131510036 | 0 | 2.8 | 11.6 | -6 | inactive |
| RARA | SID131510788 | 0 | 3.6 | 3.5 | 3.7 | inactive |
| BLM | SID131518126 | 0 | 16.8 | 29.7 | 3.8 | inactive |
| EHD4 | SID131508371 | 0 | 1 | 9 | -7 | inactive |
| ABCB7 | SID131501705 | -1 | -7.9 | 2.3 | -18.1 | inactive |
| CNTROB | SID131505230 | 0 | -3.5 | 4.3 | -11.3 | inactive |
| TGM2 | SID131501879 | -1 | -6.8 | -14.4 | 0.8 | inactive |
| DBX2 | SID131513512 | 0 | 6.7 | 4.7 | 8.6 | inactive |
| PLA2G4F | SID131519114 | 1 | 2.6 | -10 | 15.3 | inactive |
| SULT1E1 | SID131517037 | 0 | 12.2 | 8.9 | 15.6 | inactive |
| NFIC | SID131516196 | 0 | 10.4 | 4.9 | 15.9 | inactive |
| LOC388822 | SID131512783 | 0 | 5.9 | 3.8 | 8 | inactive |
| ZNF177 | SID131508195 | 0 | 0.8 | -2 | 3.5 | inactive |
| ACOT9 | SID131512997 | 0 | 6.1 | 9.8 | 2.3 | inactive |
| SLC7A11 | SID131500464 | -1 | -27.4 | -13.5 | -41.3 | inactive |
| CCDC7 | SID131510240 | 0 | 3 | 9.5 | -3.5 | inactive |
| CCDC7 | SID131512163 | 0 | 5.2 | -2.5 | 12.8 | inactive |
| ZNF626 | SID131503630 | 0 | -8.8 | -8.8 | -8.8 | inactive |
| LCA5 | SID131503600 | 0 | -9 | -9.7 | -8.2 | inactive |
| LOC388774 | SID131513223 | 0 | 6.3 | 4 | 8.7 | inactive |
| CST9 | SID131521128 | 1 | 12.3 | 6.9 | 17.7 | inactive |
| MCEE | SID131509112 | 0 | 1.8 | -0.1 | 3.7 | inactive |
| VPS51P8 | SID131515287 | 0 | 8.9 | 5.8 | 12.1 | inactive |
| DCN | SID131509206 | 0 | 1.9 | -0.4 | 4.3 | inactive |
| LOC220686 | SID131515294 | 0 | 8.9 | -1.5 | 19.4 | inactive |
| DENND4A | SID131513859 | 0 | 7.1 | 7.2 | 7 | inactive |
| MACROH2A2 | SID131513407 | 0 | 6.6 | 8.8 | 4.3 | inactive |
| GEM | SID131507542 | 0 | 0 | -7.6 | 7.6 | inactive |
| LETM1 | SID131523076 | 2 | 18.9 | 18.4 | 19.5 | active |
| LOC400951 | SID131512881 | 0 | 6 | 16.3 | -4.4 | inactive |
| SKIL | SID131518631 | 0 | 22.9 | 36.2 | 9.6 | inactive |
| C19orf53 | SID131510848 | 0 | 3.7 | 4.2 | 3.2 | inactive |
| SLCO3A1 | SID131508129 | 0 | 0.7 | -2.2 | 3.5 | inactive |
| RAD54L2 | SID131514610 | 0 | 8 | 14.2 | 1.8 | inactive |
| LUZP4 | SID131508493 | 0 | 1.1 | -10.8 | 13 | inactive |
| PPM1H | SID131521366 | 1 | 13.1 | 20.2 | 6.1 | inactive |
| CXCL11 | SID131510501 | 0 | 3.3 | 10.8 | -4.2 | inactive |
| WDR77 | SID131507404 | 0 | -0.2 | 1 | -1.4 | inactive |
| RAB3C | SID131500423 | -1 | -36.1 | -40.2 | -32 | inactive |
| CLDN9 | SID131515389 | 0 | 9.1 | -5.8 | 24 | inactive |
| WSCD1 | SID131517758 | 0 | 14.7 | 20.1 | 9.2 | inactive |
